These are yes or no findings as the source states them, for the method shown. Some results given as binding are weak or reduced against the parent protein; the word gives no strength. For part of these data: Sequences can lack the tags named with a protein.
Key:
[1] = molecular target: HVEM-Fc (R&D Systems) (UniProt Q92956); assay: Streptactin-ELISA (FIG. 6 legend)
[2] = molecular target: HVEM-Fc (R&D Systems) (UniProt Q92956); assay: Streptactin-ELISA, 0-10 microgram/ml LIGHT-ASPD immobilized, 100 ng/ml HVEM-Fc
[3] = molecular target: TRAIL-Receptor 2-Fc (R&D Systems) (UniProt O14763); assay: Streptactin-ELISA (FIG. 14B), supernatant immobilized, constant concentration of TRAIL-Receptor 2-Fc
[4] = molecular target: TRAIL-Receptor 2-Fc (R&D Systems) (UniProt O14763); assay: Streptactin-ELISA (FIG. 14D), supernatant immobilized, varying concentrations of TRAIL-Receptor 2-Fc
[5] = molecular target: T1, TRAIL-Receptor 1-Fc (R&D Systems) (UniProt O00220); assay: Streptactin-ELISA (FIG. 14C), supernatant immobilized, varying concentrations of TRAIL-Receptor 1-Fc
T1 sequence (looked up): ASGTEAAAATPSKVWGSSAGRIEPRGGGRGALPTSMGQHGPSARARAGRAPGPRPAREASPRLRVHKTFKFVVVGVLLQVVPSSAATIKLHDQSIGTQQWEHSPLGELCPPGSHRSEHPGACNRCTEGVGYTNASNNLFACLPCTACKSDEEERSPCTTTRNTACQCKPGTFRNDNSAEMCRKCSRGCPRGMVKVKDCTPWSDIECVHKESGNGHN

Chains of the proteins cited; added tags and fusions are not shown. Residues count along the entry.
UniProt Q92956, residues 39-202: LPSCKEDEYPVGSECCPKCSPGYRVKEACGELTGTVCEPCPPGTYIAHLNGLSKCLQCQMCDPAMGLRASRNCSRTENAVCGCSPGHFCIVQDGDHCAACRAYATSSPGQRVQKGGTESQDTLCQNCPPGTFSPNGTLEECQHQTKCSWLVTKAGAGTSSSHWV
UniProt O14763, residues 54-182: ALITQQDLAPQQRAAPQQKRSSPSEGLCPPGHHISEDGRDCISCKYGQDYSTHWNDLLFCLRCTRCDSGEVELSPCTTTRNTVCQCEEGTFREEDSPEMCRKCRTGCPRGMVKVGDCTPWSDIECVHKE

[6] = molecular target: T1, TRAIL-Receptor 1-Fc (R&D Systems); assay: Streptactin-ELISA (FIG. 15A), 1 microgram/ml purified trimeric ligand immobilized, TRAIL-Receptor 1-Fc detection
[7] = molecular target: T1, TRAIL-Receptor 1-Fc (R&D Systems); assay: Streptactin-ELISA (FIG. 14A), supernatant immobilized, constant concentration of TRAIL-Receptor 1-Fc
[8] = molecular target: TRAIL-Receptor 2-Fc (R&D Systems) (UniProt O14763); assay: Streptactin-ELISA (FIG. 15B), 1 microgram/ml purified trimeric ligand immobilized, TRAIL-Receptor 2-Fc detection
[9] = molecular target: T2, TACl-Fc (R&D Systems) (UniProt O14836); assay: Streptactin-ELISA, APRIL-ASPD supernatant immobilized, varying concentrations of TACl-Fc, anti-human Fc-peroxidase detection
T2 sequence (looked up): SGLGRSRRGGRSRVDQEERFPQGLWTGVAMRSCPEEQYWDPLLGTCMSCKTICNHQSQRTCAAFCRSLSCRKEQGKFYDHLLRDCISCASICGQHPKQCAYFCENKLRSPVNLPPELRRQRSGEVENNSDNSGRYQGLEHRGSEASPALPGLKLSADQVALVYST

[10] = molecular target: T2, TACl-Fc (R&D Systems); assay: Streptactin-ELISA (FIG. 34 legend)

Binder | binding [3] | binding [7] | other results
LIGHT-ASPD (ligand, also called Sp-LIGHT-ASPD; LIGHT fusion protein) EVNPAAHLTGANSSLTGSGGPLLWETQLGLAFLRGLSYHDGALVVTKAGYYYIYSKVQLGGVGCPLGLASTITHGLYKRTPRYPEELELLVSQQSPCGRATSSSRVWWDSSFLGGVVHLEAGEEVVVRVLDERLVRLRDGTRSYFGAFMVGSSGSSGSSGSGLPDVASLRQQVEALQGQVQHLQAAFSQYKKVELFPNGQSVGEKIFKTAGFVKPFTEAQLLCTQAGGQLASPRSAAENAALQQLVVAKNEAAFLSMTDSKTEGKFTYPTGESLVYSNWAPGEPNDDGGSEDCVEIFTNGKWNDRACGEKRLVVCEFGGSPSSSSSSAWSHPQFEK |  |  | binding [1]: binds; binding [2]: binds
TRAILR2mut-D-CCSPD (ligand, it is assembled from the construct description; also called TRAILR2mut (member of the SPD variants)) QRVAAHITGTRGRSNTLSSPNSKNEKALGRKINSWESSRSGHSFLSNLHLRNGELVIHEKGFYYIYSQTQFKFREEIKENTKNDKQMVQYIYKYTSYPDPILLMKSARNSCWSKDAEYGLYSIYQGGIFELKENDRIFVSVTNERLLQMDHEASFFGAFLVGSGLPDVASLRQQVEALQGQVQHLQAAFSQYKKVELFPNGPSSSSSSAWSHPQFEK | binds |  | 
TRAILR1mut-ASPD (ligand) QRVAAHITGTRGRSNTLSSPNSKNEKALGRKINSWESSRSGHSFLSNLHLRNGELVIHEKGFYYIYSQTAFRFSEEIKEVTRNDKQMVQYIYKWTDYPDPILLMKSARNSCWSKDAEYGLYSIYQGGIFELKENDRIFVSVTNEHLIDMDHEASFFGAFLVGSSGSSGSSGSGLPDVASLRQQVEALQGQVQHLQAAFSQYKKVELFPNGQSVGEKIFKTAGFVKPFTEAQLLCTQAGGQLASPRSAAENAALQQLVVAKNEAAFLSMTDSKTEGKFTYPTGESLVYSNWAPGEPNDDGGSEDCVEIFTNGKWNDRACGEKRLVVCEFGGSPSSSSSSAWSHPQFEK | binds | binds | binding [4]: binds; binding [5]: binds; binding [6]: binds
TRAILR1mut-A-CCSPD (ligand) QRVAAHITGTRGRSNTLSSPNSKNEKALGRKINSWESSRSGHSFLSNLHLRNGELVIHEKGFYYIYSQTAFRFSEEIKEVTRNDKQMVQYIYKWTDYPDPILLMKSARNSCWSKDAEYGLYSIYQGGIFELKENDRIFVSVTNEHLIDMDHEASFFGAFLVGSSGSSGSSGSGLPDVASLRQQVEALQGQVQHLQAAFSQYKKVELFPNGPSSSSSSAWSHPQFEK | binds | binds | 
TRAILR1mut-D-SPD (ligand) QRVAAHITGTRGRSNTLSSPNSKNEKALGRKINSWESSRSGHSFLSNLHLRNGELVIHEKGFYYIYSQTAFRFSEEIKEVTRNDKQMVQYIYKWTDYPDPILLMKSARNSCWSKDAEYGLYSIYQGGIFELKENDRIFVSVTNEHLIDMDHEASFFGAFLVGSGLPDVASLRQQVEALQGQVQHLQAAFSQYKKVELFPNGQSVGEKIFKTAGFVKPFTEAQLLCTQAGGQLASPRSAAENAALQQLVVAKNEAAFLSMTDSKTEGKFTYPTGESLVYSNWAPGEPNDDGGSEDCVEIFTNGKWNDRACGEKRLVVCEFGGSPSSSSSSAWSHPQFEK | binds | binds | 
TRAILR1mut-D-CCSPD (ligand) QRVAAHITGTRGRSNTLSSPNSKNEKALGRKINSWESSRSGHSFLSNLHLRNGELVIHEKGFYYIYSQTAFRFSEEIKEVTRNDKQMVQYIYKWTDYPDPILLMKSARNSCWSKDAEYGLYSIYQGGIFELKENDRIFVSVTNEHLIDMDHEASFFGAFLVGSGLPDVASLRQQVEALQGQVQHLQAAFSQYKKVELFPNGPSSSSSSAWSHPQFEK | binds | binds | 
TRAILR2mut-ASPD (ligand, TRAIL-Receptor 2 selective mutein; homotrimer by SEC; also called Sp-TRAILR2mut-ASPD) QRVAAHITGTRGRSNTLSSPNSKNEKALGRKINSWESSRSGHSFLSNLHLRNGELVIHEKGFYYIYSQTQFKFREEIKENTKNDKQMVQYIYKYTSYPDPILLMKSARNSCWSKDAEYGLYSIYQGGIFELKENDRIFVSVTNERLLQMDHEASFFGAFLVGSSGSSGSSGSGLPDVASLRQQVEALQGQVQHLQAAFSQYKKVELFPNGQSVGEKIFKTAGFVKPFTEAQLLCTQAGGQLASPRSAAENAALQQLVVAKNEAAFLSMTDSKTEGKFTYPTGESLVYSNWAPGEPNDDGGSEDCVEIFTNGKWNDRACGEKRLVVCEFGGSPSSSSSSAWSHPQFEK | binds |  | binding [4]: binds; binding [8]: binds
APRIL-ASPD (ligand) KQHSVLHLVPINATSKDDSDVTEVMWQPALRRGRGLQAQGYGVRIQDAGVYLLYSQVLFQDVTFTMGQVVSREGQGRQETLFRCIRSMPSHPDRAYNSCYSAGVFHLHQGDILSVIIPRARAKLNLSPHGTFLGFVKLGSSGSSGSSGSGLPDVASLRQQVEALQGQVQHLQAAFSQYKKVELFPNGQSVGEKIFKTAGFVKPFTEAQLLCTQAGGQLASPRSAAENAALQQLVVAKNEAAFLSMTDSKTEGKFTYPTGESLVYSNWAPGEPNDDGGSEDCVEIFTNGKWNDRACGEKRLVVCEFGGSPSSSSSSAWSHPQFEK |  |  | binding [9]: binds; binding [10]: binds
TRAILR2mut-A-CCSPD (ligand, it is assembled from the construct description; also called TRAILR2mut (member of the SPD variants)) QRVAAHITGTRGRSNTLSSPNSKNEKALGRKINSWESSRSGHSFLSNLHLRNGELVIHEKGFYYIYSQTQFKFREEIKENTKNDKQMVQYIYKYTSYPDPILLMKSARNSCWSKDAEYGLYSIYQGGIFELKENDRIFVSVTNERLLQMDHEASFFGAFLVGSSGSSGSSGSGLPDVASLRQQVEALQGQVQHLQAAFSQYKKVELFPNGPSSSSSSAWSHPQFEK | binds |  | 
TRAILR2mut-D-SPD (ligand, it is assembled from the construct description; also called TRAILR2mut (member of the SPD variants)) QRVAAHITGTRGRSNTLSSPNSKNEKALGRKINSWESSRSGHSFLSNLHLRNGELVIHEKGFYYIYSQTQFKFREEIKENTKNDKQMVQYIYKYTSYPDPILLMKSARNSCWSKDAEYGLYSIYQGGIFELKENDRIFVSVTNERLLQMDHEASFFGAFLVGSGLPDVASLRQQVEALQGQVQHLQAAFSQYKKVELFPNGQSVGEKIFKTAGFVKPFTEAQLLCTQAGGQLASPRSAAENAALQQLVVAKNEAAFLSMTDSKTEGKFTYPTGESLVYSNWAPGEPNDDGGSEDCVEIFTNGKWNDRACGEKRLVVCEFGGSPSSSSSSAWSHPQFEK | binds |  | 

— US20170081386A1 (APOGENIX, published 2017)
